Some of the results follow. These are further read-outs of the screen, such as a control signal, another cell line or another target. No call is given for them. The list favours compounds with an active or inconclusive main result. Words in brackets tell the shape of the fitted curve; partial curves, single points and poor fits give uncertain potencies.
assay: Cell signaling CRE-BLA (Fsk stim); conditions: CHO CRE-bla reporter (cAMP response element driving beta-lactamase), forskolin EC10, beta-lactamase ratio; measured here: 460 nm blue channel
How it was run: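 CHO CRE-bla cells, overnight plating in Opti-MEM with 0.5% dialyzed FBS; cpd titration + EC10 NKH 477, 3 h 37 °C; CCF4 2 h RT; ex 405/em 460 vs 530 ratio → %Activity, AC50.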

Structure (SMILES)	AC50
CC(C)c1ccc(O)c(NC(=O)c2cncc(Br)c2)c1	2.51 µM [falling, single point]
CCOc1ncccc1C(=O)OCCN1C(=O)c2ccccc2C1=O	5.01 µM [rising, single point]
CCn1c(SCC(=O)Nc2ccc3c(c2)OCO3)nc2c1c(=O)n(C)c(=O)n2C	2.51 µM [rising, full curve, poor fit]
CC(=O)Nc1nc(CC(C)C)cc(-c2ccco2)c1C#N	25.1 µM [rising, single point]
COC(=O)c1c(NC(=O)C2CC=CCC2C(=O)O)sc(C(N)=O)c1C (stereo not drawn)	0.0316 µM [falling, full curve, poor fit]
CCc1nc(SCc2cccnc2)c2c(=O)n(C)c(=O)n(C)c2n1	2.51 µM [rising, full curve]
COc1ccc(Cc2nnc(SCC(=O)c3ccccc3)o2)cc1	5.01 µM [falling, single point]
O=C(Nc1ccccc1C(=O)Nc1ccccc1C(=O)NCc1ccco1)c1ccco1	3.16 µM [rising, partial curve]
Cc1ccc2cc3c(NC(=O)CC(C)C)nn(C)c3nc2c1	7.94 µM [rising, partial curve]
CCOc1cc(C(=O)Nc2cc(=O)n(C)c(=O)n2C)cc(OCC)c1OCC	0.00316 µM [falling, full curve]
O=C(CCN1c2ccccc2Sc2ccccc21)OCc1nnc(-c2ccccc2)o1	3.16 µM [rising, single point]
CC(=O)C1=C(C)NC(SCC(=O)c2cc(Cl)ccc2Cl)=C(C#N)C1c1ccco1 (stereo not drawn)	15.8 µM [falling, single point]
O=c1c(-c2ccccc2)nc2cnc(Oc3ccccc3)nc2n1C1CC1	12.6 µM [rising, partial curve]
CCOC(=O)c1cc(-c2ccc3c(c2)OCO3)nc2onc(C)c12	12.6 µM [rising, partial curve]
COc1cccc(C(=O)Nc2cc(C)c3c(=O)oc4ccccc4c3n2)c1	10 µM [rising, partial curve]
COCCCn1c(=N)c(C(=O)NCc2ccc3c(c2)OCO3)cc2c(=O)n3ccccc3nc21	10 µM [rising, partial curve]
O=C(NC1CCCCC1)N1CCC(c2nc3ccc(Cl)cc3[nH]2)CC1	12.6 µM [rising, partial curve]
CCn1nc(C(=O)N2CCc3ccccc3C2)c2ccccc2c1=O	15.8 µM [rising, partial curve, poor fit]

Two records drawn at random from those above:
Structure (SMILES)	AC50
CC(=O)C1=C(C)NC(SCC(=O)c2cc(Cl)ccc2Cl)=C(C#N)C1c1ccco1 (stereo not drawn)	15.8 µM [falling, single point]
O=C(NC1CCCCC1)N1CCC(c2nc3ccc(Cl)cc3[nH]2)CC1	12.6 µM [rising, partial curve]
